# A unit is not stated for every read-out.
# Assay: Emission and excitation spectra of purified LHGFR with or without 100 μM L-2-HG
# Assay type: binding
# Conditions: for Fluorescence intensity, emission spectrum: Suppl. Fig. 8b
structure (smiles),measurement,setting,value
"O=C(O)CC[C@H](O)C(=O)O [L-2-HG, L-2-Hydroxyglutarate]",fluorescence intensity,"Suppl. Fig. 4b excitation spectrum, 464 nm",1.24E+06
same,fluorescence intensity,"Suppl. Fig. 4b excitation spectrum, 466 nm",1.28E+06
same,fluorescence intensity,"Suppl. Fig. 4b excitation spectrum, 468 nm",1.33E+06
same,fluorescence intensity,"Suppl. Fig. 4b excitation spectrum, 470 nm",1.38E+06
same,fluorescence intensity,"Suppl. Fig. 4b excitation spectrum, 472 nm",1.42E+06
same,fluorescence intensity,"Suppl. Fig. 4b excitation spectrum, 474 nm",1.48E+06
same,fluorescence intensity,"Suppl. Fig. 4b excitation spectrum, 476 nm",1.55E+06
same,fluorescence intensity,"Suppl. Fig. 4b excitation spectrum, 478 nm",1.64E+06
same,fluorescence intensity,"Suppl. Fig. 4b excitation spectrum, 480 nm",1.75E+06
same,fluorescence intensity,"Suppl. Fig. 4b excitation spectrum, 482 nm",1.85E+06
same,fluorescence intensity,"Suppl. Fig. 4b excitation spectrum, 484 nm",1.81E+06
same,fluorescence intensity,"Suppl. Fig. 4b excitation spectrum, 486 nm",1.80E+06
same,fluorescence intensity,"Suppl. Fig. 4b excitation spectrum, 488 nm",1.77E+06
same,fluorescence intensity,"Suppl. Fig. 4b excitation spectrum, 490 nm",1.76E+06
same,fluorescence intensity,"Suppl. Fig. 4b excitation spectrum, 492 nm",1.76E+06
same,fluorescence intensity,"Suppl. Fig. 4b excitation spectrum, 494 nm",1.76E+06
same,fluorescence intensity,"Suppl. Fig. 4b excitation spectrum, 496 nm",1.78E+06
same,fluorescence intensity,"Suppl. Fig. 4b excitation spectrum, 498 nm",1.82E+06
same,fluorescence intensity,"Suppl. Fig. 4b excitation spectrum, 500 nm",1.91E+06
same,fluorescence intensity,"Suppl. Fig. 4b excitation spectrum, 502 nm",2.07E+06
same,fluorescence intensity,"Suppl. Fig. 4b excitation spectrum, 504 nm",2.54E+06
same,fluorescence intensity,"Suppl. Fig. 4b excitation spectrum, 506 nm",3.07E+06
same,fluorescence intensity,"Suppl. Fig. 4b excitation spectrum, 508 nm",3.50E+06
same,fluorescence intensity,"Suppl. Fig. 4b excitation spectrum, 510 nm",3.73E+06
same,fluorescence intensity,"Suppl. Fig. 4b excitation spectrum, 512 nm",3.95E+06
same,fluorescence intensity,"Suppl. Fig. 4b excitation spectrum, 514 nm",4.11E+06
same,fluorescence intensity,"Suppl. Fig. 4b excitation spectrum, 516 nm",4.18E+06
same,fluorescence intensity,"Suppl. Fig. 4b excitation spectrum, 518 nm",4.17E+06
same,fluorescence intensity,"Suppl. Fig. 4b excitation spectrum, 520 nm",4.10E+06
same,fluorescence intensity,"Suppl. Fig. 4b excitation spectrum, 522 nm",3.84E+06
same,fluorescence intensity,"Suppl. Fig. 4b excitation spectrum, 524 nm",3.31E+06
same,fluorescence intensity,"Suppl. Fig. 4b excitation spectrum, 526 nm",2.40E+06
same,fluorescence intensity,"Suppl. Fig. 4b excitation spectrum, 528 nm",1.42E+06
same,fluorescence intensity,"Suppl. Fig. 4b excitation spectrum, 530 nm",938111
same,fluorescence intensity,"Suppl. Fig. 4b excitation spectrum, 532 nm",663965
same,fluorescence intensity,"Suppl. Fig. 4b excitation spectrum, 534 nm",490736
same,fluorescence intensity,"Suppl. Fig. 8a emission spectrum, 450 nm",5095
same,fluorescence intensity,"Suppl. Fig. 8a emission spectrum, 452 nm",6551
same,fluorescence intensity,"Suppl. Fig. 8a emission spectrum, 454 nm",7935
same,fluorescence intensity,"Suppl. Fig. 8a emission spectrum, 456 nm",10250
same,fluorescence intensity,"Suppl. Fig. 8a emission spectrum, 458 nm",13637
same,fluorescence intensity,"Suppl. Fig. 8a emission spectrum, 460 nm",19717
same,fluorescence intensity,"Suppl. Fig. 8a emission spectrum, 462 nm",27208
same,fluorescence intensity,"Suppl. Fig. 8a emission spectrum, 464 nm",43597
same,fluorescence intensity,"Suppl. Fig. 8a emission spectrum, 466 nm",65029
same,fluorescence intensity,"Suppl. Fig. 8a emission spectrum, 468 nm",104204
same,fluorescence intensity,"Suppl. Fig. 8a emission spectrum, 470 nm",189423
same,fluorescence intensity,"Suppl. Fig. 8a emission spectrum, 472 nm",268857
same,fluorescence intensity,"Suppl. Fig. 8a emission spectrum, 474 nm",382782
same,fluorescence intensity,"Suppl. Fig. 8a emission spectrum, 476 nm",549226
same,fluorescence intensity,"Suppl. Fig. 8a emission spectrum, 478 nm",669159
same,fluorescence intensity,"Suppl. Fig. 8a emission spectrum, 480 nm",834094
same,fluorescence intensity,"Suppl. Fig. 8a emission spectrum, 482 nm",989680
same,fluorescence intensity,"Suppl. Fig. 8a emission spectrum, 484 nm",1.12E+06
same,fluorescence intensity,"Suppl. Fig. 8a emission spectrum, 486 nm",1.30E+06
same,fluorescence intensity,"Suppl. Fig. 8a emission spectrum, 488 nm",1.45E+06
same,fluorescence intensity,"Suppl. Fig. 8a emission spectrum, 490 nm",1.59E+06
same,fluorescence intensity,"Suppl. Fig. 8a emission spectrum, 492 nm",1.72E+06
same,fluorescence intensity,"Suppl. Fig. 8a emission spectrum, 494 nm",1.78E+06
same,fluorescence intensity,"Suppl. Fig. 8a emission spectrum, 496 nm",1.77E+06
same,fluorescence intensity,"Suppl. Fig. 8a emission spectrum, 498 nm",1.74E+06
same,fluorescence intensity,"Suppl. Fig. 8a emission spectrum, 500 nm",1.69E+06
same,fluorescence intensity,"Suppl. Fig. 8a emission spectrum, 502 nm",1.63E+06
same,fluorescence intensity,"Suppl. Fig. 8a emission spectrum, 504 nm",1.60E+06
same,fluorescence intensity,"Suppl. Fig. 8a emission spectrum, 506 nm",1.55E+06
same,fluorescence intensity,"Suppl. Fig. 8a emission spectrum, 508 nm",1.52E+06
same,fluorescence intensity,"Suppl. Fig. 8a emission spectrum, 510 nm",1.53E+06
same,fluorescence intensity,"Suppl. Fig. 8a emission spectrum, 512 nm",1.57E+06
same,fluorescence intensity,"Suppl. Fig. 8a emission spectrum, 514 nm",1.67E+06
same,fluorescence intensity,"Suppl. Fig. 8a emission spectrum, 516 nm",1.90E+06
same,fluorescence intensity,"Suppl. Fig. 8a emission spectrum, 518 nm",2.17E+06
same,fluorescence intensity,"Suppl. Fig. 8a emission spectrum, 520 nm",2.46E+06
same,fluorescence intensity,"Suppl. Fig. 8a emission spectrum, 522 nm",2.67E+06
same,fluorescence intensity,"Suppl. Fig. 8a emission spectrum, 524 nm",2.84E+06
same,fluorescence intensity,"Suppl. Fig. 8a emission spectrum, 526 nm",2.92E+06
same,fluorescence intensity,"Suppl. Fig. 8a emission spectrum, 528 nm",2.95E+06
same,fluorescence intensity,"Suppl. Fig. 8a emission spectrum, 530 nm",2.93E+06
same,fluorescence intensity,"Suppl. Fig. 8a emission spectrum, 532 nm",2.84E+06
same,fluorescence intensity,"Suppl. Fig. 8a emission spectrum, 534 nm",2.74E+06
same,fluorescence intensity,"Suppl. Fig. 8a emission spectrum, 536 nm",2.59E+06
same,fluorescence intensity,"Suppl. Fig. 8a emission spectrum, 538 nm",2.35E+06
same,fluorescence intensity,"Suppl. Fig. 8a emission spectrum, 540 nm",2.12E+06
same,fluorescence intensity,"Suppl. Fig. 8a emission spectrum, 542 nm",1.85E+06
same,fluorescence intensity,"Suppl. Fig. 8a emission spectrum, 544 nm",1.68E+06
same,fluorescence intensity,"Suppl. Fig. 8a emission spectrum, 546 nm",1.52E+06
same,fluorescence intensity,"Suppl. Fig. 8a emission spectrum, 548 nm",1.39E+06
same,fluorescence intensity,"Suppl. Fig. 8a emission spectrum, 550 nm",1.29E+06
same,fluorescence intensity,"Suppl. Fig. 8a emission spectrum, 552 nm",1.20E+06
same,fluorescence intensity,"Suppl. Fig. 8a emission spectrum, 554 nm",1.12E+06
same,fluorescence intensity,"Suppl. Fig. 8a emission spectrum, 556 nm",1.06E+06
same,fluorescence intensity,"Suppl. Fig. 8a emission spectrum, 558 nm",990780
same,fluorescence intensity,"Suppl. Fig. 8a emission spectrum, 560 nm",928516
same,fluorescence intensity,"Suppl. Fig. 8a emission spectrum, 562 nm",867560
same,fluorescence intensity,"Suppl. Fig. 8a emission spectrum, 564 nm",804813
same,fluorescence intensity,"Suppl. Fig. 8a emission spectrum, 566 nm",746699
same,fluorescence intensity,"Suppl. Fig. 8a emission spectrum, 568 nm",687421
same,fluorescence intensity,"Suppl. Fig. 8a emission spectrum, 570 nm",638245
same,fluorescence intensity,"Suppl. Fig. 8a emission spectrum, 572 nm",599635
same,fluorescence intensity,"Suppl. Fig. 8a emission spectrum, 574 nm",563432
same,fluorescence intensity,"Suppl. Fig. 8a emission spectrum, 576 nm",515238
same,fluorescence intensity,"Suppl. Fig. 8a emission spectrum, 578 nm",487979
same,fluorescence intensity,"Suppl. Fig. 8a emission spectrum, 580 nm",445688
same,"Fluorescence intensity, emission spectrum",emission 450 nm,4866
same,"Fluorescence intensity, emission spectrum",emission 452 nm,6706
same,"Fluorescence intensity, emission spectrum",emission 454 nm,7958
same,"Fluorescence intensity, emission spectrum",emission 456 nm,10880
same,"Fluorescence intensity, emission spectrum",emission 458 nm,15229
same,"Fluorescence intensity, emission spectrum",emission 460 nm,22038
